Measurements reported in PubChem BioAssay (EPA / NIEHS).
Inconclusive results, whose numbers are uncertain, are shown with a selection of clear calls. A potency beside an inconclusive call is a rough fit, not a confirmed value. The source made the active and inactive calls. How the source made its calls: active means hit-call score of the fitted dose curve at least 0.9, where 1 is the maximum; inconclusive means response in the unintended direction; inactive means score below 0.9.

By UniProt entry, the sequences of proteins in these tests, tags left out. Where a name states a change or a piece, a line headed by the entry shows the natural chain unless it says otherwise.
UniProt P37231: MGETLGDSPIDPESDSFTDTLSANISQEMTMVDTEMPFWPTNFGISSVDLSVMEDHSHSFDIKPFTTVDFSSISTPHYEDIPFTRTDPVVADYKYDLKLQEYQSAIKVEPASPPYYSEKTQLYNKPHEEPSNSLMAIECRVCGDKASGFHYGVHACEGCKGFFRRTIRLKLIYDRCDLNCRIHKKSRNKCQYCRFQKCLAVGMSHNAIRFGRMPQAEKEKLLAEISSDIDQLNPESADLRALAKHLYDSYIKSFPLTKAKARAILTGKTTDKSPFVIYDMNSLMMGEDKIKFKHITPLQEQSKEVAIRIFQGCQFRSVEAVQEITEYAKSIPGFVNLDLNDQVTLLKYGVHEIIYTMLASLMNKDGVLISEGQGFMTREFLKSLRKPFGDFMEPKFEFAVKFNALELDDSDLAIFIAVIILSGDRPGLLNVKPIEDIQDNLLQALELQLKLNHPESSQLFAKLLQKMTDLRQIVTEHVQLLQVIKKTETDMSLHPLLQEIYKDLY

Tested on: not listed separately
Experiment: ATG_M_19_XSP1: Attagene TRANS-FACTORIAL Multi-Species (XSP1) HepG2 Assay for M19 Transcription Factor (Internal Marker) (AID 2283798)
Method in brief: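 HepG2 cells transiently transfected with multiplexed GAL4-UAS reporter units, dosed 24 h with 3 nM 6-alpha-fluorotestosterone present for partial AR stimulation. Reporter mRNA measured by RT-PCR with capillary electrophoresis; gain-of-signal fitted relative to DMSO.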

| Structure (SMILES) | AC50 |
| --- | --- |
| CC[C@H](c1ccc(O)cc1)[C@@H](CC)c1ccc(O)cc1 | inconclusive: 0.151 nM |
| O=C(c1ccc(O)cc1O)c1ccc(O)cc1O | inconclusive: 492 nM |
| C[C@]12CC[C@H]3C(=CCc4cc(O)ccc43)[C@@H]1CCC2=O | inconclusive: 255 nM |

Tested on: not listed separately
Experiment: ATG_M_32_XSP1: Attagene TRANS-FACTORIAL Multi-Species (XSP1) HepG2 Assay for M32 Transcription Factor (Internal Marker) (AID 2283799)
Method in brief: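 HepG2 cells transiently transfected with multi-species TRANS reporter units, dosed 24 h with 3 nM 6-alpha-fluorotestosterone present. Internal-marker reporter mRNA quantified by RT-PCR and capillary electrophoresis; positive-direction fit versus DMSO.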

| Structure (SMILES) | outcome | AC50 |
| --- | --- | --- |
| CC[C@H](c1ccc(O)cc1)[C@@H](CC)c1ccc(O)cc1 | inactive |  |
| O=C(c1ccc(O)cc1O)c1ccc(O)cc1O |  | inconclusive: 895 nM |
| C[C@]12CC[C@H]3C(=CCc4cc(O)ccc43)[C@@H]1CCC2=O |  | inconclusive: 258 nM |

Biological target: Peroxisome proliferator-activated receptor gamma (Homo sapiens) (UniProt P37231)
Experiment: ATG_hPPARg_XSP1: Attagene TRANS-FACTORIAL Multi-Species (XSP1) HepG2 Assay for human Peroxisome Proliferator-activated Receptor gamma (PPARg) (AID 2283800)
Method in brief: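 HepG2 cells transiently transfected with GAL4-UAS reporter units carrying chimeric NR-Gal4 proteins; 3 nM 6-alpha-fluorotestosterone present. After 24 h dosing, reporter mRNA quantified by RT-PCR and capillary electrophoresis; gain of signal relative to DMSO.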

| Structure (SMILES) | outcome | AC50 |
| --- | --- | --- |
| CC[C@H](c1ccc(O)cc1)[C@@H](CC)c1ccc(O)cc1 | inactive |  |
| O=C(c1ccc(O)cc1O)c1ccc(O)cc1O | inactive |  |
| C[C@]12CC[C@H]3C(=CCc4cc(O)ccc43)[C@@H]1CCC2=O |  | inconclusive: 248 nM |
